Assay results

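A panel of P. falciparum strains inside erythrocytes is exposed to compounds for three days, then a DNA-binding dye reports the amount of parasite DNA. Each compound was titrated across a series from about 0.000037 to 29 µM. The number is the fitted AC50, the concentration giving a half-maximal change in signal; a lower value means higher potency, whether the curve shows a decrease or an increase. Calls follow the curve class and fit quality: every row here is inconclusive, covering signal-raising curves and weak, poorly fitted, partial or highest-dose-only inhibition curves.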

Values are in nM. All entries here are filed as inconclusive. These entries are mostly ones the record files as inconclusive; other results of the assay are not listed here. A potency from a partial, single-point or poor curve is only a rough figure.

structure	tested on / at	fitted potency (nM)	remark
COCCOC(=O)C1=C(C)NC(C)=C(C(=O)OC(C)C)C1c1cccc([N+](=O)[O-])c1 (stereo not shown)	TAB113	17782	inhibitor, single point
COCCOC(=O)C1=C(C)NC(C)=C(C(=O)OC(C)C)C1c1cccc([N+](=O)[O-])c1 (stereo not shown)	CP265	11220	inhibitor, single point
COCCOC(=O)C1=C(C)NC(C)=C(C(=O)OC(C)C)C1c1cccc([N+](=O)[O-])c1 (stereo not shown)	ATS95	14125	inhibitor, single point
COCCOC(=O)C1=C(C)NC(C)=C(C(=O)OC(C)C)C1c1cccc([N+](=O)[O-])c1 (stereo not shown)	CP269	15101	inhibitor, single point
COCCOC(=O)C1=C(C)NC(C)=C(C(=O)OC(C)C)C1c1cccc([N+](=O)[O-])c1 (stereo not shown)	CP315	19011	inhibitor, single point
COCCOC(=O)C1=C(C)NC(C)=C(C(=O)OC(C)C)C1c1cccc([N+](=O)[O-])c1 (stereo not shown)	CP247	15848	inhibitor, single point
COCCOC(=O)C1=C(C)NC(C)=C(C(=O)OC(C)C)C1c1cccc([N+](=O)[O-])c1 (stereo not shown)	CP192	13459	inhibitor, single point
COCCOC(=O)C1=C(C)NC(C)=C(C(=O)OC(C)C)C1c1cccc([N+](=O)[O-])c1 (stereo not shown)	CP201	15101	inhibitor, single point
COCCOC(=O)C1=C(C)NC(C)=C(C(=O)OC(C)C)C1c1cccc([N+](=O)[O-])c1 (stereo not shown)	AA1029	11220	inhibitor, single point
COCCOC(=O)C1=C(C)NC(C)=C(C(=O)OC(C)C)C1c1cccc([N+](=O)[O-])c1 (stereo not shown)	CP325	7569	inhibitor, partial curve, poor fit
COCCOC(=O)C1=C(C)NC(C)=C(C(=O)OC(C)C)C1c1cccc([N+](=O)[O-])c1 (stereo not shown)	DFO2036	12589	inhibitor, single point
COCCOC(=O)C1=C(C)NC(C)=C(C(=O)OC(C)C)C1c1cccc([N+](=O)[O-])c1 (stereo not shown)	CP286	10000	inhibitor, single point
CC(=O)OCC1=C(C(=O)O)N2C(=O)[C@@H](N)[C@@H]2SC1	N140	1000	inhibitor, single point
CC(=O)OCC1=C(C(=O)O)N2C(=O)[C@@H](N)[C@@H]2SC1	AA1029	1122	inhibitor, single point
CC(=O)OCC1=C(C(=O)O)N2C(=O)[C@@H](N)[C@@H]2SC1	ATS189	1000	inhibitor, single point
CC(=O)OCC1=C(C(=O)O)N2C(=O)[C@@H](N)[C@@H]2SC1	CP185	794.3	inhibitor, single point
CC(=O)OCC1=C(C(=O)O)N2C(=O)[C@@H](N)[C@@H]2SC1	CP238	1412	inhibitor, single point
CC(=O)OCC1=C(C(=O)O)N2C(=O)[C@@H](N)[C@@H]2SC1	AS120	1585	inhibitor, single point
CC(=O)OCC1=C(C(=O)O)N2C(=O)[C@@H](N)[C@@H]2SC1	TAB113	1000	inhibitor, single point
CC(=O)OCC1=C(C(=O)O)N2C(=O)[C@@H](N)[C@@H]2SC1	CP250	1412	inhibitor, single point
CC(=O)OCC1=C(C(=O)O)N2C(=O)[C@@H](N)[C@@H]2SC1	P94_40	891.3	inhibitor, single point
CC(=O)OCC1=C(C(=O)O)N2C(=O)[C@@H](N)[C@@H]2SC1	CP256	1412	inhibitor, single point
CC(=O)OCC1=C(C(=O)O)N2C(=O)[C@@H](N)[C@@H]2SC1	C2A	1000	inhibitor, single point
CC(=O)OCC1=C(C(=O)O)N2C(=O)[C@@H](N)[C@@H]2SC1	CP191	1259	inhibitor, single point
CC(=O)OCC1=C(C(=O)O)N2C(=O)[C@@H](N)[C@@H]2SC1	P93_24	1000	inhibitor, single point
CC(=O)OCC1=C(C(=O)O)N2C(=O)[C@@H](N)[C@@H]2SC1	CP217	1412	inhibitor, single point
CC(=O)OCC1=C(C(=O)O)N2C(=O)[C@@H](N)[C@@H]2SC1	CP265	1122	inhibitor, single point
CC(=O)OCC1=C(C(=O)O)N2C(=O)[C@@H](N)[C@@H]2SC1	DFO2036	891.3	inhibitor, single point
CC(=O)OCC1=C(C(=O)O)N2C(=O)[C@@H](N)[C@@H]2SC1	PAD	1585	inhibitor, single point
CC(=O)OCC1=C(C(=O)O)N2C(=O)[C@@H](N)[C@@H]2SC1	TAB109	1585	inhibitor, single point
CC(=O)OCC1=C(C(=O)O)N2C(=O)[C@@H](N)[C@@H]2SC1	ATS95	1585	inhibitor, single point
CC(=O)OCC1=C(C(=O)O)N2C(=O)[C@@H](N)[C@@H]2SC1	CP252	562.3	inhibitor, single point
CC(=O)OCC1=C(C(=O)O)N2C(=O)[C@@H](N)[C@@H]2SC1	SC27B	1585	inhibitor, single point
CC(=O)OCC1=C(C(=O)O)N2C(=O)[C@@H](N)[C@@H]2SC1	TAB165	1585	inhibitor, single point
CC(=O)OCC1=C(C(=O)O)N2C(=O)[C@@H](N)[C@@H]2SC1	CP247	891.3	inhibitor, single point
CCCCc1oc2ccccc2c1C(=O)c1cc(I)c(OCCN(CC)CC)c(I)c1	CP297	13459	inhibitor, single point
CCCCc1oc2ccccc2c1C(=O)c1cc(I)c(OCCN(CC)CC)c(I)c1	CP192	10690	inhibitor, partial curve
CCCCc1oc2ccccc2c1C(=O)c1cc(I)c(OCCN(CC)CC)c(I)c1	CP269	13459	inhibitor, single point
CCCCc1oc2ccccc2c1C(=O)c1cc(I)c(OCCN(CC)CC)c(I)c1	CP291	16944	inhibitor, single point
CCCCc1oc2ccccc2c1C(=O)c1cc(I)c(OCCN(CC)CC)c(I)c1	CP329	13459	inhibitor, single point
CCCCc1oc2ccccc2c1C(=O)c1cc(I)c(OCCN(CC)CC)c(I)c1	CP201	13459	inhibitor, single point
CCCCc1oc2ccccc2c1C(=O)c1cc(I)c(OCCN(CC)CC)c(I)c1	CP268	16944	inhibitor, single point
CCCCc1oc2ccccc2c1C(=O)c1cc(I)c(OCCN(CC)CC)c(I)c1	JCK	12589	inhibitor, single point
CCCCc1oc2ccccc2c1C(=O)c1cc(I)c(OCCN(CC)CC)c(I)c1	CP262	15101	inhibitor, single point
CCCCc1oc2ccccc2c1C(=O)c1cc(I)c(OCCN(CC)CC)c(I)c1	CP305	16944	inhibitor, single point
CCCCc1oc2ccccc2c1C(=O)c1cc(I)c(OCCN(CC)CC)c(I)c1	DFO2036	17782	inhibitor, single point
CCCCc1oc2ccccc2c1C(=O)c1cc(I)c(OCCN(CC)CC)c(I)c1	FAB9	11220	inhibitor, single point
CCCCc1oc2ccccc2c1C(=O)c1cc(I)c(OCCN(CC)CC)c(I)c1	CP211	10690	inhibitor, single point
CCCCc1oc2ccccc2c1C(=O)c1cc(I)c(OCCN(CC)CC)c(I)c1	PC49	10000	inhibitor, single point
CCCCc1oc2ccccc2c1C(=O)c1cc(I)c(OCCN(CC)CC)c(I)c1	CP325	15101	inhibitor, single point
CCCCc1oc2ccccc2c1C(=O)c1cc(I)c(OCCN(CC)CC)c(I)c1	3D7	11220	inhibitor, single point

Data taken from PubChem BioAssay AID504749, deposited by NCATS (2011).